{"source": "patent US20030158089A1", "about": "(priority 2002, published 2003)", "experiment": "peptide synthesis", "conditions": "whole synthesis", "data": [{"substance": "N-acetyl-D-Lys(ε-biotin)-D-Arg-D-Arg-D-Arg-D-Gln-D-Arg-D-Arg-D-Lys-D-Lys-D-Arg-NH2", "values": [{"measurement": "final LC-MS purity", "result": ">99", "unit": "%"}]}]}
